# Positions count from the first letter of the chain named. No constants are given. Whether binding was seen depends on the method and setting. A result given as binding can be weak or reduced; the word gives no strength.
# B1: anti-VEGF/anti-DLL4 bispecific antibody 219R45-MB-21R83 (bispecific antibody, human IgG2)
# heavy 1: QVQLVQSGAEVKKPGASVKVSCKASGYTFTNYWMHWVRQAPGQGLEWMGDINPSNGRTSYKEKFKRRVTLSVDKSSSTAYMELSSLRSEDTAVYFCTIHYDDKYYPLMDYWGQGTLVTVSSASTKGPSVFPLAPCSRSTSESTAALGCLVKDYFPEPVTVSWNSGALTSGVHTFPAVLQSSGLYSLSSVVTVPSSNFGTQTYTCNVDHKPSNTKVDKTVERKCCVECPPCPAPPVAGPSVFLFPPKPKDTLMISRTPEVTCVVVDVSHEDPEVQFNWYVDGVEVHNAKTKPREEQFNSTFRVVSVLTVVHQDWLNGKEYKCKVSNKGLPAPIEKTISKTKGQPREPQVYTLPPSREKMTKNQVSLTCLVKGFYPSDIAVEWESNGQPENNYKTTPPMLKSDGSFFLYSKLTVDKSRWQQGNVFSCSVMHEALHNHYTQKSLSLSPGK
# heavy 2: QVQLVQSGAEVKKPGASVKISCKASGYSFTAYYIHWVKQAPGQGLEWIGYISNYNRATNYNQKFKGRVTFTTDTSTSTAYMELRSLRSDDTAVYYCARDYDYDVGMDYWGQGTLVTVSSASTKGPSVFPLAPCSRSTSESTAALGCLVKDYFPEPVTVSWNSGALTSGVHTFPAVLQSSGLYSLSSVVTVPSSNFGTQTYTCNVDHKPSNTKVDKTVERKCCVECPPCPAPPVAGPSVFLFPPKPKDTLMISRTPEVTCVVVDVSHEDPEVQFNWYVDGVEVHNAKTKPREEQFNSTFRVVSVLTVVHQDWLNGKEYKCKVSNKGLPAPIEKTISKTKGQPREPQVYTLPPSREEMTKNQVSLTCLVEGFYPSDIAVEWESNGQPENNYKTTPPMLDSDGSFFLYSELTVDKSRWQQGNVFSCSVMHEALHNHYTQKSLSLSPGK
# light: DIVMTQSPDSLAVSLGERATISCRASESVDNYGISFMKWFQQKPGQPPKLLIYAASNQGSGVPDRFSGSGSGTDFTLTISSLQAEDVAVYYCQQSKEVPWTFGGGTKVEIKRTVAAPSVIFPPSDEQLKSGTASVVCLLNNFYPREAKVQWKVDNALQSGNSQESVTEQDSKDSTYSLSSTLTLSKADYEKHKVYACEVTHQGLSSPVTKSFNRGEC
# notes: Monovalent/bispecific IgG2 heterodimer with charge-modified CH3 domains and two identical light chains
# B2: anti-VEGF/anti-DLL4 bispecific antibody 219R45-MB-21M18 (bispecific antibody, human IgG2)
# heavy 1: B1 heavy 1
# heavy 2: B1 heavy 2 with N53S, R56G
# light: B1 light
# notes: Monovalent/bispecific (MB) IgG2 heterodimer with charge-modified CH3 domains and two identical light chains
# B3: anti-VEGF/anti-DLL4 bispecific antibody 219R45-MB-21R75 (bispecific antibody, human IgG2)
# heavy 1: B1 heavy 1
# heavy 2: B1 heavy 2 with S52A, N53G, N55K, R56D
# light: B1 light
# notes: as for B1
# B4: anti-VEGF/anti-DLL4 bispecific antibody 219R45-MB-21R79 (bispecific antibody, human IgG2)
# heavy 1: B1 heavy 1
# heavy 2: B1 heavy 2 with S52A
# light: B1 light
# notes: as for B1
# Molecular target: VEGF (ATGEN, South Korea)
# Assay: bispecific sandwich ELISA: antibody pre-incubated with 2 ug/ml biotin-DLL4-hFc, captured on VEGF-coated plate, detected with streptavidin-HRP
row,Binder,binding
1,B1,binds
2,B2,binds
3,B3,binds
4,B4,binds
